These are yes or no findings as the source states them, for the method shown. Binding seen in cells or lysates may run through a third protein. Here binding means that the protein was enriched with, or labelled near, the bait; the list need not be complete.
Target: eGFP-TEV-Gdown1 (human (endogenous in HAP1)) (UniProt P0CAP2)
Experiment: affinity purification with mass spectrometry; GFP-Trap agarose IP from clarified lysate of eGFP-TEV-Gdown1 HAP1 cells (20 mM Tris pH 7.8, 150 mM NaCl, 0.5% IGEPAL CA-360, 0.1 mM EDTA, 1 mM DTT), 1 h at 4°C; complexes eluted by TEV digestion; LC-MS

Amino acid sequences for entries named in this document (tags omitted).
UniProt P0CAP2: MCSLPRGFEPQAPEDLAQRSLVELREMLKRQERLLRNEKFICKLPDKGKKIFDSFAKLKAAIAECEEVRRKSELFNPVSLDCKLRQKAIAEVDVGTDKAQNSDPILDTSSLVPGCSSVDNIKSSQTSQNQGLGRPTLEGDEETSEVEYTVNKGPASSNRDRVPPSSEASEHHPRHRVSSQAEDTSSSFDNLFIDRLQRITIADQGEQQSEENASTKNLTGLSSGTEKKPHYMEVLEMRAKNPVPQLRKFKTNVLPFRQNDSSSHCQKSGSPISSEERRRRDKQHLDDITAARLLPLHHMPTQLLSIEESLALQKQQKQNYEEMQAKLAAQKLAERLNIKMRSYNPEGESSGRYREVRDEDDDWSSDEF
UniProt Q8IXW5: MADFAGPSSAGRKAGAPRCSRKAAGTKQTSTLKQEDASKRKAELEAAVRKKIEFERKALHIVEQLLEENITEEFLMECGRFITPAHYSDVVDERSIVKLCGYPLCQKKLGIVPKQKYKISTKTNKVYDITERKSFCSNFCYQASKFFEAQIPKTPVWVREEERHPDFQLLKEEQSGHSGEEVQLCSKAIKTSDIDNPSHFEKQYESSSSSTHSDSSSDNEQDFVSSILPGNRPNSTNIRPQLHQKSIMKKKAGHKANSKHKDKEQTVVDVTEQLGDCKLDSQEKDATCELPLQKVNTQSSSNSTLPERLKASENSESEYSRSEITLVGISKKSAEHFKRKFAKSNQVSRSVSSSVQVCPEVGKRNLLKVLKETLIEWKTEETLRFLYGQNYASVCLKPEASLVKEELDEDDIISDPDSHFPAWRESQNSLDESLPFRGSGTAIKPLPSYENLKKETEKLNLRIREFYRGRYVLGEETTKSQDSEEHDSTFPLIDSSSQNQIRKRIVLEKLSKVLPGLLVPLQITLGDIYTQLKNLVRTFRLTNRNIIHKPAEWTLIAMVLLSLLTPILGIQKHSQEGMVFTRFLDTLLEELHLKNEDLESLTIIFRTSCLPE
UniProt Q9UHW5: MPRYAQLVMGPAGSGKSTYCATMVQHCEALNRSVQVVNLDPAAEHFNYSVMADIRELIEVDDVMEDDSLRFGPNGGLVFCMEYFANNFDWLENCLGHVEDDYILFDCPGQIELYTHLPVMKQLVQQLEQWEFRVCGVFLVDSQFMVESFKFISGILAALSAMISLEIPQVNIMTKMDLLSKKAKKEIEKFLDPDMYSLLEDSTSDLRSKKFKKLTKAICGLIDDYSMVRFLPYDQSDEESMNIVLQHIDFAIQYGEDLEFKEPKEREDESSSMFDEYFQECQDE

Substance | binding
RPAP2 (from UniProt Q8IXW5 1-612) | binds
GPN3 (from UniProt Q9UHW5 1-284) | binds
